B1: nVenus-SE (protein, UniProt Q9ZVD0 1-720)
chain: MADVNLPPSDSVDNRLPEKSTSSSPPPPPPSSSLPQQEQEQDQQQLPLRRERDSRERRDERDIERPPPNRRERDRSPLPPPRRDYKRRPSLSPPPPYRDRRHSPPQRRSPPQKRYRRDDNGYDGRRGSPRGGYGPPDRRFGYDHGGGYDREMGGRPGYGDERPHGRFMGRYQDWEGGRGGYGDASNSGNPQRDGLMSYKQFIQELEDDILPSEAERRYQEYKSEYITTQKRAFFNTHKEEDWLKNKYHPTNLLSVIERRNDLAQKVAKDFLLDLQSGTLDLGPAVTALNKSGRTSEPNSEDEAAGVGKRKRHGMGGAKENELLSAAPKAPSFTSDPKRILTDVEQTQALVRKLDSEKKIEENVLQGSETEKSGREKLHSGSTGPVVIIRGLTSVKGLEGVELLDTLVTYLWRVHGLDYYGKVETNEAKGLRHVRAEGKVSDAKGDENESKFDSHWQERLKGQDPLEVMAAKEKIDAAATEALDPHVRKIRDEKYGWKYGCGAKGCTKLFHAAEFVYKHLKLKHTELVTELTTKVREELYFQNYMNDPNAPGGQPATQQSGPRDRPIRRKPSMENRLRDDRGGRRERDGRANGNDRNDRSEDQQRGDNDGGNPGEVGYDAFGGQGGVHVPPFLSDINPPPMLMPVPGAGPLGPFVPAPPEVAMQMFRDPSGPNPPFEGSGRGGPAPFLLSPAFRQDPRRLRSYQDLDAPEEEVTVIDYRSL
B2: nVenus-AGO1 (protein, UniProt O04379 1-1048)
chain: MVRKRRTDAPSEGGEGSGSREAGPVSGGGRGSQRGGFQQGGGQHQGGRGYTPQPQQGGRGGRGYGQPPQQQQQYGGPQEYQGRGRGGPPHQGGRGGYGGGRGGGPSSGPPQRQSVPELHQATSPTYQAVSSQPTLSEVSPTQVPEPTVLAQQFEQLSVEQGAPSQAIQPIPSSSKAFKFPMRPGKGQSGKRCIVKANHFFAELPDKDLHHYDVTITPEVTSRGVNRAVMKQLVDNYRDSHLGSRLPAYDGRKSLYTAGPLPFNSKEFRINLLDEEVGAGGQRREREFKVVIKLVARADLHHLGMFLEGKQSDAPQEALQVLDIVLRELPTSRYIPVGRSFYSPDIGKKQSLGDGLESWRGFYQSIRPTQMGLSLNIDMSSTAFIEANPVIQFVCDLLNRDISSRPLSDADRVKIKKALRGVKVEVTHRGNMRRKYRISGLTAVATRELTFPVDERNTQKSVVEYFHETYGFRIQHTQLPCLQVGNSNRPNYLPMEVCKIVEGQRYSKRLNERQITALLKVTCQRPIDREKDILQTVQLNDYAKDNYAQEFGIKISTSLASVEARILPPPWLKYHESGREGTCLPQVGQWNMMNKKMINGGTVNNWICINFSRQVQDNLARTFCQELAQMCYVSGMAFNPEPVLPPVSARPEQVEKVLKTRYHDATSKLSQGKEIDLLIVILPDNNGSLYGDLKRICETELGIVSQCCLTKHVFKMSKQYMANVALKINVKVGGRNTVLVDALSRRIPLVSDRPTIIFGADVTHPHPGEDSSPSIAAVVASQDWPEITKYAGLVCAQAHRQELIQDLFKEWKDPQKGVVTGGMIKELLIAFRRSTGHKPLRIIFYRDGVSEGQFYQVLLYELDAIRKACASLEAGYQPPVTFVVVQKRHHTRLFAQNHNDRHSVDRSGNILPGTVVDSKICHPTEFDFYLCSHAGIQGTSRPAHYHVLWDENNFTADGLQSLTNNLCYTYARCTRSVSIVPPAYYAHLAAFRARFYMEPETSDSGSMASGSMARGGGMAGRSTRGPNVNAAVRPLPALKENVKRVMFYC
B3: nVenus-CDC5 (protein, UniProt P92948 1-844)
chain: MRIMIKGGVWKNTEDEILKAAVMKYGKNQWARISSLLVRKSAKQCKARWYEWLDPSIKKTEWTREEDEKLLHLAKLLPTQWRTIAPIVGRTPSQCLERYEKLLDAACTKDENYDAADDPRKLRPGEIDPNPEAKPARPDPVDMDEDEKEMLSEARARLANTRGKKAKRKAREKQLEEARRLASLQKRRELKAAGIDGRHRKRKRKGIDYNAEIPFEKRAPAGFYDTADEDRPADQVKFPTTIEELEGKRRADVEAHLRKQDVARNKIAQRQDAPAAILQANKLNDPEVVRKRSKLMLPPPQISDHELEEIAKMGYASDLLAENEELTEGSAATRALLANYSQTPRQGMTPMRTPQRTPAGKGDAIMMEAENLARLRDSQTPLLGGENPELHPSDFTGVTPRKKEIQTPNPMLTPSMTPGGAGLTPRIGLTPSRDGSSFSMTPKGTPFRDELHINEDMDMHESAKLERQRREEARRSLRSGLTGLPQPKNEYQIVAQPPPEESEEPEEKIEEDMSDRIAREKAEEEARQQALLKKRSKVLQRDLPRPPAASLAVIRNSLLSADGDKSSVVPPTPIEVADKMVREELLQLLEHDNAKYPLDDKAEKKKGAKNRTNRSASQVLAIDDFDENELQEADKMIKEEGKFLCVSMGHENKTLDDFVEAHNTCVNDLMYFPTRSAYELSSVAGNADKVAAFQEEMENVRKKMEEDEKKAEHMKAKYKTYTKGHERRAETVWTQIEATLKQAEIGGTEVECFKALKRQEEMAASFRKKNLQEEVIKQKETESKLQTRYGNMLAMVEKAEEIMVGFRAQALKKQEDVEDSHKLKEAKLATGEEEDIAIAMEASA
B4: nVenus-HYL1 (protein, UniProt O04492 1-419)
chain: MTSTDVSSGVSNCYVFKSRLQEYAQKYKLPTPVYEIVKEGPSHKSLFQSTVILDGVRYNSLPGFFNRKAAEQSAAEVALRELAKSSELSQCVSQPVHETGLCKNLLQEYAQKMNYAIPLYQCQKVETLGRVTQFTCTVEIGGIKYTGAATRTKKDAEISAGRTALLAIQSDTKNNLANYNTQLTVLPCEKKTIQAAIPLKETVKTLKARKAQFKKKAQKGKRTVAKNPEDIIIPPQPTDHCQNDQSEKIETTPNLEPSSCMNGLKEAAFGSVETEKIETTPNLEPPSCMNGLKEAAFGSVETEKIETTPNLEPPSCMNGLKEAAFGSVETEKIETTPNLEPSSCMNGLKEAAFGSVETEKIETTPNLEPPSCMNGLKEAAFGSVETEKIETTPNLESSSCMSGLKEAAFGSVETEASHA
B5: MYC-SE (protein, UniProt Q9ZVD0 1-720)
chain: MADVNLPPSDSVDNRLPEKSTSSSPPPPPPSSSLPQQEQEQDQQQLPLRRERDSRERRDERDIERPPPNRRERDRSPLPPPRRDYKRRPSLSPPPPYRDRRHSPPQRRSPPQKRYRRDDNGYDGRRGSPRGGYGPPDRRFGYDHGGGYDREMGGRPGYGDERPHGRFMGRYQDWEGGRGGYGDASNSGNPQRDGLMSYKQFIQELEDDILPSEAERRYQEYKSEYITTQKRAFFNTHKEEDWLKNKYHPTNLLSVIERRNDLAQKVAKDFLLDLQSGTLDLGPAVTALNKSGRTSEPNSEDEAAGVGKRKRHGMGGAKENELLSAAPKAPSFTSDPKRILTDVEQTQALVRKLDSEKKIEENVLQGSETEKSGREKLHSGSTGPVVIIRGLTSVKGLEGVELLDTLVTYLWRVHGLDYYGKVETNEAKGLRHVRAEGKVSDAKGDENESKFDSHWQERLKGQDPLEVMAAKEKIDAAATEALDPHVRKIRDEKYGWKYGCGAKGCTKLFHAAEFVYKHLKLKHTELVTELTTKVREELYFQNYMNDPNAPGGQPATQQSGPRDRPIRRKPSMENRLRDDRGGRRERDGRANGNDRNDRSEDQQRGDNDGGNPGEVGYDAFGGQGGVHVPPFLSDINPPPMLMPVPGAGPLGPFVPAPPEVAMQMFRDPSGPNPPFEGSGRGGPAPFLLSPAFRQDPRRLRSYQDLDAPEEEVTVIDYRSL

Sequences of proteins named here, by UniProt entry; tags and fusion partners are left off. A change or cut given only in a name is not applied to a line headed by its entry.
UniProt Q9ZU66: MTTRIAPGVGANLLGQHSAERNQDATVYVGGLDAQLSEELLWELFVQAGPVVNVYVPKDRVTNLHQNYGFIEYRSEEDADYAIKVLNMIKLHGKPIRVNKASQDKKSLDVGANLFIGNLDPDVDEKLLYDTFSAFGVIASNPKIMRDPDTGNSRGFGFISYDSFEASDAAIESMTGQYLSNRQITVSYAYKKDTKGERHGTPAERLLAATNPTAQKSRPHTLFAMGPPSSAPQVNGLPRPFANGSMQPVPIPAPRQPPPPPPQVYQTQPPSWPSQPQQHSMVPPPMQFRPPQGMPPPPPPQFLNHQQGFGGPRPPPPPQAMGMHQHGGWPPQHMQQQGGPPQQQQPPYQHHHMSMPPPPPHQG
UniProt Q9SP32: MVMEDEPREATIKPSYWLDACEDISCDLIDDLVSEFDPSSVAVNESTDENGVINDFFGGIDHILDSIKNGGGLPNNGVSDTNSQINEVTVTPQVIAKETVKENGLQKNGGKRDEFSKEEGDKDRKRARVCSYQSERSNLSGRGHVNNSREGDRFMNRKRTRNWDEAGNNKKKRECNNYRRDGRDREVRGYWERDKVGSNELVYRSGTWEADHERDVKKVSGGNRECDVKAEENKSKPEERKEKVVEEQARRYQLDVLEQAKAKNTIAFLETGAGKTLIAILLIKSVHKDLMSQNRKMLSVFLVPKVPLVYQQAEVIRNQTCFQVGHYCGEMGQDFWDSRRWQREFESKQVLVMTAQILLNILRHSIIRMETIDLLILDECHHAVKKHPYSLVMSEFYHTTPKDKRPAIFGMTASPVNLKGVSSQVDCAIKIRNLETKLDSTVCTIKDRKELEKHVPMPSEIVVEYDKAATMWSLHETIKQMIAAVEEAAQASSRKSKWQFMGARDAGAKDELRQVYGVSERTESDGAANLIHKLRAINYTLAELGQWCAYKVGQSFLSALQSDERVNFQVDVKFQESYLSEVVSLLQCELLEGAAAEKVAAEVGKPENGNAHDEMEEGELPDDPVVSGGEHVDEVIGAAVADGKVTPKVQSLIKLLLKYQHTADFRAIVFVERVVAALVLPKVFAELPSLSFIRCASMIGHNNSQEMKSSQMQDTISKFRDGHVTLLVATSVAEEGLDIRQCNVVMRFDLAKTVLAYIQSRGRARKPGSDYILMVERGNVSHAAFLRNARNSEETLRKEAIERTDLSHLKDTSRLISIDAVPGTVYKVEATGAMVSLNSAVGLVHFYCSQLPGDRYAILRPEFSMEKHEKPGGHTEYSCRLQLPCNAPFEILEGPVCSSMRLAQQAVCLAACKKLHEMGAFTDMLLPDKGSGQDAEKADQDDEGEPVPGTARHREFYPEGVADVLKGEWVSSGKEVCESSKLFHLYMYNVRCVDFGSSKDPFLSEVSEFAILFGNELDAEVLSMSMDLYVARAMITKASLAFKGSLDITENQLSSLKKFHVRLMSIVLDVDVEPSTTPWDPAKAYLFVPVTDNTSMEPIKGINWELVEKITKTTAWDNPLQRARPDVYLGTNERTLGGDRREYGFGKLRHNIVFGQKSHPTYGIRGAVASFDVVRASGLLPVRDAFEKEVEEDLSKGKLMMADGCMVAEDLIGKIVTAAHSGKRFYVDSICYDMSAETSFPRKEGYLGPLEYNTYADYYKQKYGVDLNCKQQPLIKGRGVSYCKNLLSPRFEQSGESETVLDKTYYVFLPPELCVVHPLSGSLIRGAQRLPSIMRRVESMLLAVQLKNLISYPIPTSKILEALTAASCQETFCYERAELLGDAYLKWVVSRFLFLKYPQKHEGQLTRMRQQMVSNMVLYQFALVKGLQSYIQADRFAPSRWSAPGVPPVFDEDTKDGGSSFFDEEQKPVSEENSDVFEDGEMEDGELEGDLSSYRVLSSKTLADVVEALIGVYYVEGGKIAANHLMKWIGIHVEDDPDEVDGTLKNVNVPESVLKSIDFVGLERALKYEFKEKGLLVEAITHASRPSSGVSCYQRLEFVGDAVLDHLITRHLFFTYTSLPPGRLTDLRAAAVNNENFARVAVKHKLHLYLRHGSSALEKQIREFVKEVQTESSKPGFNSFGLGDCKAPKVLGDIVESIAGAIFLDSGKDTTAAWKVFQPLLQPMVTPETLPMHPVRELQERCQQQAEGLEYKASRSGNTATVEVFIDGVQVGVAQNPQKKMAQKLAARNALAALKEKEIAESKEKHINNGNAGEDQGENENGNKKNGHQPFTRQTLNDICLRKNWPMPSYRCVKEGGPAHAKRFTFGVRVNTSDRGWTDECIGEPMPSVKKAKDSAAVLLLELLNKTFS

These are yes or no findings as the source states them, for the method shown. In cells and extracts the contact can be indirect. A result given as binding can be weak or reduced; the word gives no strength. For part of these data: Where a sequence is shown, tags or fusion partners need not be part of it.

The first assay concerns the target cCFP-JANUS (Arabidopsis) (UniProt Q9ZU66). Put plainly: split reporter; BiFC: cCFP-JANUS co-infiltrated with nVenus fusions in N. benthamiana leaves; YFP signal by confocal microscopy after 48 h.
Regarding “nVenus-DCL1 (from UniProt Q9SP32 1-1909)”, the binding entry was “binds”.

Take B1: the binding entry is reported as “binds”.

For B2, the binding entry is given as “binds weakly”.

In the case of B3, the binding result is listed as “binds”.

As to B4, the binding result was “binds weakly”.

For the next assay, the target named is JANUS-FLAG (Arabidopsis). The assay is described as follows: co-IP; transient co-expression in N. benthamiana (35S promoter); leaf extract in 50 mM Tris-HCl 8.0, 150 mM NaCl, 5% glycerol, 5% Triton X-100, 1 mM EDTA; IP with anti-FLAG (JANUS-FLAG + MYC-SE) or anti-GFP (GFP-DCL1 + JANUS-FLAG; GFP-tagged JANUS fragments + MYC-SE) on protein G agarose beads; western blot.
With B5, the binding entry is given as “binds”.
